Experimental data as given in PubChem BioAssay AID2003 (Broad Institute, 2009).
Some of the results follow. Entries with a potency or affinity are not part of this list. Where no call is shown, the source marks the result inconclusive.

Assay: PubChem AID 2003
Settings: H4 cells, SNCA 5'UTR luciferase reporter, luminescence; at 12 µM (top of the series) unless noted

| Structure (SMILES) | activation |
| --- | --- |
| Cc1nn(CC(C)C)c(Cl)c1C(=O)NC1CCC(C)CC1 (stereo not given) | 90.8% |
| CC(C)(C)c1ccc(OC(=O)N2CCCCC2)cc1 | 93.9% |
| CN1C(=O)/C(=C/c2ccc(N3CCCCCC3)o2)C(=O)NC1=S | 78.3% |
| COc1ccc2nc(NC3=NCCN3)sc2c1 | 106% |
| N=C1c2ccccc2CN1CC(=O)c1ccccc1 | 140% [at 6 µM] |
